The target in the experiment is 2xHA-FKBP12(F36V)-tagged DIS3L (mouse (endogenous in mESCs)) (UniProt Q8C0S1). Put plainly: co-IP; anti-HA antibody on Protein-G Dynabeads from lysate of Dis3l-2xHA-FKBP12(F36V) / Skiv2l-3xFLAG-Avi mESCs (cMB510); 10 mM Tris-HCl pH 7.4, 150 mM NaCl, 2.5 mM MgCl2, 0.5% NP-40; 4°C; western blot with anti-HA, anti-Flag, anti-Mtr4. For orientation: Immunoblotting shows a protein as a band on a membrane.

Protein sequences, listed by entry. Tags and fused reporters are not part of them. Lines headed by an entry give the natural chain unless they say otherwise; changes in a name come on top.
UniProt Q8C0S1: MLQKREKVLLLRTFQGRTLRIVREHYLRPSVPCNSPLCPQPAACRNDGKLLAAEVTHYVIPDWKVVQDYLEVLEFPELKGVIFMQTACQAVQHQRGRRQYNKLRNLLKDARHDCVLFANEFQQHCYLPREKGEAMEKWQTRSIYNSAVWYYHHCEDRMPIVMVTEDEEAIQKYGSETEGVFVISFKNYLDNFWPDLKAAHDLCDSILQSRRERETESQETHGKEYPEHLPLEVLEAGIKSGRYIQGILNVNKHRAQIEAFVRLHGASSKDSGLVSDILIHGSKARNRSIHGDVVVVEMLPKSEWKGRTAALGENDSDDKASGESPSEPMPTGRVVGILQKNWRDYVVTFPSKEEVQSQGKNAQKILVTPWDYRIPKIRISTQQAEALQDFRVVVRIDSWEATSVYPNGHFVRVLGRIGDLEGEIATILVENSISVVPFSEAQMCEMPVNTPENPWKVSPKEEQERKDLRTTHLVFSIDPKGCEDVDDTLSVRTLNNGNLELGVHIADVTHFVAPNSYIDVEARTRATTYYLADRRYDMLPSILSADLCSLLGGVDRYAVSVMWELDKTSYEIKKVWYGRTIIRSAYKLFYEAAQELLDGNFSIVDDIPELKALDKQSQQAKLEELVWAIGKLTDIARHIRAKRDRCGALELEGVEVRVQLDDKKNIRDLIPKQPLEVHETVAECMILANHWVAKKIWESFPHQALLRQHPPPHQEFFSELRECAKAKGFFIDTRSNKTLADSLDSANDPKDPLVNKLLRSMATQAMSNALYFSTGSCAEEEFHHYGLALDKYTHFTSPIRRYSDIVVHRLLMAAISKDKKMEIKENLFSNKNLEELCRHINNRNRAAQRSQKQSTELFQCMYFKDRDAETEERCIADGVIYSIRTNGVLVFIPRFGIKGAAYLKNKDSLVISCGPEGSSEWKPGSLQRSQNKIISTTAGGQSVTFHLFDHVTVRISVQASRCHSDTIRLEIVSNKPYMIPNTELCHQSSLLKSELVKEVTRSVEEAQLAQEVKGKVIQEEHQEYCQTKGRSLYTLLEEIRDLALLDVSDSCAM
UniProt Q6NZR5: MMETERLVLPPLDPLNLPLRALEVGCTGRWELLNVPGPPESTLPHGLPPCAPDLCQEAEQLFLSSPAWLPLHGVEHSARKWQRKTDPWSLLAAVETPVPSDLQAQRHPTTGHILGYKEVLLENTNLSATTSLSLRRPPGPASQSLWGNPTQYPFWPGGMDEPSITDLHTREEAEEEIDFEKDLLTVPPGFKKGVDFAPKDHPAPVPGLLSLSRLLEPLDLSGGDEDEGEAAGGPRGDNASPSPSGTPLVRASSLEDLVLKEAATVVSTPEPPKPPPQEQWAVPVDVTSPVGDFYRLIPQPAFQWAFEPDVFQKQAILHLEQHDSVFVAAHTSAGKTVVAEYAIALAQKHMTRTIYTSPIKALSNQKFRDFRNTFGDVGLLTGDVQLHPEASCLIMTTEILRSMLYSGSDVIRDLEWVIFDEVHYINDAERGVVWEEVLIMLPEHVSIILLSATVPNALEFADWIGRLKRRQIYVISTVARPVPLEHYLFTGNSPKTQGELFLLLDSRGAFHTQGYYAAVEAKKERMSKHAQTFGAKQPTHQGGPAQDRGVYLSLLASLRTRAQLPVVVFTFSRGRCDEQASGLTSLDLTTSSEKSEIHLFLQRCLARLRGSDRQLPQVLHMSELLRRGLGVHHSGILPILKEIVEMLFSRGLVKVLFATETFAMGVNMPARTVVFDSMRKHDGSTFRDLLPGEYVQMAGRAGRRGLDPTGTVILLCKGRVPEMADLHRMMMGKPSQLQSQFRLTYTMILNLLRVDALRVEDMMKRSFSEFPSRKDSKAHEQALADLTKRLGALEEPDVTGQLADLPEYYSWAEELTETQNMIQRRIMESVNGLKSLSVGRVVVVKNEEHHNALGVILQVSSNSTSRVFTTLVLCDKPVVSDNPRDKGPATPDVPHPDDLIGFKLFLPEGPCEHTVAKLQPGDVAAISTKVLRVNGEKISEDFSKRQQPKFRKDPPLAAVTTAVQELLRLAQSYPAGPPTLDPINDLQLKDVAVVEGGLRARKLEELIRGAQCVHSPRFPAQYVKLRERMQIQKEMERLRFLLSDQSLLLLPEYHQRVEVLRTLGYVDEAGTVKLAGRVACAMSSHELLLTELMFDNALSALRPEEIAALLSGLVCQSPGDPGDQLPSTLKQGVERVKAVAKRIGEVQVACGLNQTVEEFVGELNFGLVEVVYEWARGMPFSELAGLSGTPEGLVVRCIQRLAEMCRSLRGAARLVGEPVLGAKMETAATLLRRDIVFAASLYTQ

This passage reports binding results from paper PMC7083229.

These are yes or no findings as the source states them, for the method shown. Binding seen in cells or lysates may run through a third protein. Some results given as binding are weak or reduced against the parent protein; the word gives no strength.

“3xFLAG-Avi-tagged SKIV2L (from UniProt Q6NZR5 1-1244) (enzyme)”: the binding result is given as “binds”.
